# Experimental data: PubChem BioAssay AID1259308 (NCATS, 2017)
# Purpose: 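Genes whose loss raises luciferase production in HEK293 cells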 (primary screen)
# System: human HEK293 embryonic kidney cells stably expressing firefly luciferase (HEK-CMV-Luc2-Hygro)
# Knock-down reagent: single siRNA against human genes, 0.8 pmol siRNA per well
# Duration: 72 h
# Measurement: 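Luciferase light (ONE-Glo) measured on one replicate plate set and viability (CellTiter-Glo) on the other, scaled to a negative control siRNA, with robust z-scores and luciferase per cell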
# Direction: total luciferase, z-score and total luciferase, % of control: higher = more reporter protein produced; luciferase per cell, z-score: higher = more reporter output per viable cell; viable cells, % of control: higher = more viable cells
# Hit rule: 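Active when the median/MAD z-score for overall luciferase is greater than 3; a gene was taken forward for validation with new siRNAs if at least two of its three siRNAs passed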
# Calls: active = raised luciferase; inactive = no rise
# In all, the deposit lists about 59,000 reagents; shown is a part drawn at random. About 1,510 of all reagents (2.6%) were called active. 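Calls use total luciferase alone and ignore viability, so some active siRNAs may act by altering cell number.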 Unmarked entries are inactive. The numbers tell different reagents against one gene apart. Reagent sequences are not shown.
gene symbol,reagent,"total luciferase, z-score","total luciferase, % of control","luciferase per cell, z-score","viable cells, % of control"
"NFE2 (nuclear factor, erythroid 2)",1,-0.483,72.3,-0.821,100
"NFE2 (nuclear factor, erythroid 2)",2,-0.322,75.5,0.00178,84.3
"NFE2 (nuclear factor, erythroid 2)",3,2.09,124,1.8,85.8
SLC25A1,1,0.103,83.9,-0.358,103
SLC25A1,2,-0.534,71.3,-0.944,102
SLC25A1,3,-0.18,78.3,-1.11,117
INO80B (INO80 complex subunit B),1,0.681,95.4,0.375,96.6
INO80B (INO80 complex subunit B),2,2.26,127,1.29,101
INO80B (INO80 complex subunit B),3,2.15,125,2.24,77.2
ADGRA3 (adhesion G protein-coupled receptor A3),1,1.28,107,1.29,85.4
ADGRA3 (adhesion G protein-coupled receptor A3),2,-0.461,72.7,-0.425,90.9
ADGRA3 (adhesion G protein-coupled receptor A3),3,-0.341,75.1,-0.846,105
ATXN7 (ataxin 7),1,0.423,90.3,1.61,66.1
ATXN7 (ataxin 7),2,-0.644,69.1,-0.197,81.3
ATXN7 (ataxin 7),3,-0.704,67.9,-1.42,110

Reprinted from the entries so far for reference:
gene symbol,reagent,"total luciferase, z-score","total luciferase, % of control","luciferase per cell, z-score","viable cells, % of control"
SLC25A1,2,-0.534,71.3,-0.944,102
SLC25A1,3,-0.18,78.3,-1.11,117

More entries follow.
gene symbol,reagent,"total luciferase, z-score","total luciferase, % of control","luciferase per cell, z-score","viable cells, % of control"
GRP (gastrin releasing peptide),1,0.0257,82.4,-0.55,106
GRP (gastrin releasing peptide),2,0.817,98.1,-0.0309,111
GRP (gastrin releasing peptide),3,0.67,95.2,0.133,103
SLC22A16,1,-1.17,58.7,-0.951,84.2
SLC22A16,2,-0.891,64.2,-0.365,78.9
SLC22A16,3,-1.58,50.5,-1.75,89.5
SRSF2 (serine and arginine rich splicing factor 2),1,-0.299,75.9,-0.645,101
SRSF2 (serine and arginine rich splicing factor 2),2,0.0458,82.8,-0.232,98.4
SRSF2 (serine and arginine rich splicing factor 2),3,0.452,90.9,1.35,71.1
